Assay results from patent EP2140864A2 (H. Lundbeck A/S, priority 2001, dated 2002).
For at least one compound, name, drawing or mass did not settle the structure.

Legend:
[1] = tested on: Male albino Sprague-Dawley rats; test: Rat Social Interaction Test (SIT); format: in vivo; conditions: 5 mg/kg i.p., 1 hour prior to testing, unfamiliar rats, 15 minute test; listed as chlordiazepoxide
NE transporter = test: Binding at native NE transporter; conditions: Table 8; Ki rNE Uptk divided by Ki hGAL3
Experimental: The binding properties of the compounds of the present invention were evaluated at one or more cloned receptors or native, tissue-derived transporters, using protocols described below.
The methods to determine binding affinity at native transporters are described in the following publications: 5HT transporter and NE transporter (Owens et al., 1997), and DA transporter (Javitch et al, 1984).
Binding data were analyzed using nonlinear regression and statistical techniques available in the GraphPAD Prism package (San Diego, CA). Enzymatic assay data were derived from a standard curve of reference compound data.

Male Sprague-Dawley rats = test: Rat Forced Swim Test (FST); format: in vivo; conditions: overall conclusion of the study
Experimental: The procedure used in this study was similar to that previously described (Porsolt, et al., 1978), except the water depth (30 cm in this procedure). The greater depth in this test prevented the rats from supporting themselves by touching the bottom of the cylinder with their feet. Swim sessions were conducted by placing rats in individual plexiglass cylinders (46 cm tall x 20 cm in diameter) containing 23-25°C water 30 cm deep (Porsolt, et al. used a depth of only 15 cm; also, see Detke, et al., 1995). Two swim tests were conducted always between 1200 and 1800 hours: an initial 15-min pretest followed 24 h later by a 5-minute test. […] All other test sessions were conducted between 1300 to 1700 hours. Following all swim sessions, rats were removed from the cylinders, dried with paper towels and placed in a heated cage for 15 minutes and returned to their home cages. All test sessions were videotaped using a Panasonic color video camera and recorder for scoring later.
Male Sprague-Dawley rats (Taconic Farms, NY) were used in all experiments. […]
The forced swim test data (immobility, swimming, climbing, diving) were subjected to a randomized, one-way ANOVA and post hoc tests conducted using the Student-Newman-heuls test. The data were analyzed using the GBSTAT program, version 6.5 (Dynamics Microsystems, Inc., Silver Spring, MD, 1997). […]

[2] = tested on: Male albino Sprague-Dawley rats; test: Rat Social Interaction Test (SIT); format: in vivo
Experimental: Rats were allowed to acclimate to the animal care facility for 5 days and were housed singly for 5 days prior to testing. Animals were handled for 5 minutes per day. The design and procedure for the Social Interaction Test was carried out as previously described by Kennett, et al. (1997). On the test day, weight matched pairs of rats (± 5%), unfamiliar to each other, were given identical treatments and returned to their home cages. Animals were randomly divided into 5 treatment groups, with 5 pairs per group, and were given one of the following i.p. treatments: Example 92 (10, 30 or 100 mg/kg), vehicle (1 ml/kg) or chlordiazepoxide (5 mg/kg). Dosing was 1 hour prior to testing. […] All sessions were conducted between 1:00 - 4:30 P.M. Active social interaction, defined as grooming, sniffing, biting, boxing, wrestling, following and crawling over or under, was scored using a stopwatch (Sportsline model no. 226, 1/100 sec. discriminability). The number of episodes of rearing (animal completely raises up its body on its hind limbs), grooming (licking, biting, scratching of body), and face washing (i.e. hands are moved repeatedly over face), and number of squares crossed were scored. Passive social interaction (animals are lying beside or on top of each other) was not scored. All behaviors were assessed later by an observer who was blind as to the treatment of each pair. […]

| SMILES | Social Interaction [1] | selectivity ratio rNE Uptk (NE transporter) | antidepressant profile in the FST (conclusion) (Male Sprague-Dawley rats) | anxiolytic profile in the Social Interaction Test (conclusion) ([2]; overall conclusion of the study) | social interaction in familiar cage mates ([2]; variation of the SIT with familiar cage mates, study not reported in detail) |
| --- | --- | --- | --- | --- | --- |
| CNC1=Nc2ccc(Cl)cc2C(c2ccccc2)=[N+]([O-])C1 [Chlordiazepoxide, chlordiazepoxide, reference compound] | significant increase in social interaction |  |  |  |  |
| COC[C@@H]1[C@@H](c2ccccc2)OCCN1c1nc(Nc2ccc(C)cc2)cc(N2CCCCC2)n1 [Example 49] |  | >100 | may have antidepressant properties |  |  |
| O=C1C(=Nc2cccc(C(F)(F)F)c2)c2ccccc2N1c1ccccc1 [Example 92, 1-PHENYL-3- [[3-(TRIFLUOROMETHYL)PHENYL]IMINO]-1,3-DIHYDRO-2H-INDOL-2-ONE] |  | >100 | antidepressant-like profile | has the profile of an anxiolytic drug | no significant increase in interaction |
